This is one part of the list.
What was measured:
Experiment in all cases: log2 fold change, soluble protein after heating vs DMSO (PISA); higher = thermal stabilisation; K562 cells, 10 uM, 30 min; active = over 0.2 and 3.5 SD of the protein, either way, in both replicates (recomputed)
[1] = compound: CS(=O)(=O)c1ccc(-c2cnc(N)c(C(=O)Nc3ccccc3)n2)cc1
Procedure, shortened: (§1)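 K562 cells at 2×10^6 cells/mL were exposed to 10 μM compound for 30 min, then aliquots were heated for 3 min across 48°C-58°C, pooled, and extracted in PBS containing 0.5% NP-40 at 4°C. The supernatant after 21,000xg for 90 min was taken as soluble protein and measured by TMTpro 16plex LC-MS/MS with channel sums equalised. Thermal stability is reported relative to control samples, with values from duplicates. Fold changes are given on a log2 scale.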

The chains behind the UniProt entries cited, without tags or fusion partners. Where a name states a change or a piece, a line headed by the entry shows the natural chain unless it says otherwise.
UniProt P04406: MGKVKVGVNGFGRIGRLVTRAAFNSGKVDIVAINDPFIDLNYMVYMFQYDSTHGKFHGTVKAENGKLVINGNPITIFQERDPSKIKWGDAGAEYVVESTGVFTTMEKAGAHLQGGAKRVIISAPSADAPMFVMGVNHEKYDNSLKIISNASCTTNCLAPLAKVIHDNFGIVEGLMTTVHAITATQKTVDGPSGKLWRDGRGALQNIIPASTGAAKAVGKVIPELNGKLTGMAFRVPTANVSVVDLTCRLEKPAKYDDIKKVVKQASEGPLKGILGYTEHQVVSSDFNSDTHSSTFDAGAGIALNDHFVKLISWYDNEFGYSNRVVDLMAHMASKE
UniProt P34059: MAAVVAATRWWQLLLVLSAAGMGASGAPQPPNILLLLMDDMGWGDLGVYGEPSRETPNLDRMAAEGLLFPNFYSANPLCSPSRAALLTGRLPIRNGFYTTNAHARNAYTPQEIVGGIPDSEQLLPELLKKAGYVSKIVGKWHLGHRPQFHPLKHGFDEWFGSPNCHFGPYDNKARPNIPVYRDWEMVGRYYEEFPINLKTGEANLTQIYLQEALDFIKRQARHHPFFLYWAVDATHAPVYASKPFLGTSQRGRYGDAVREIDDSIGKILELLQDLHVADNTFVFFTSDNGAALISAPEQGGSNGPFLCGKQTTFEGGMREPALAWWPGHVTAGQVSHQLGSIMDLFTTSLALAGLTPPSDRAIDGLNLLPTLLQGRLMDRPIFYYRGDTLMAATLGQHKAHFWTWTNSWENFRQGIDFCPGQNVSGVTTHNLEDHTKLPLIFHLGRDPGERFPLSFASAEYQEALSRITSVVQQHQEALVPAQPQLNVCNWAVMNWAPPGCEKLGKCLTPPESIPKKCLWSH
UniProt P15407: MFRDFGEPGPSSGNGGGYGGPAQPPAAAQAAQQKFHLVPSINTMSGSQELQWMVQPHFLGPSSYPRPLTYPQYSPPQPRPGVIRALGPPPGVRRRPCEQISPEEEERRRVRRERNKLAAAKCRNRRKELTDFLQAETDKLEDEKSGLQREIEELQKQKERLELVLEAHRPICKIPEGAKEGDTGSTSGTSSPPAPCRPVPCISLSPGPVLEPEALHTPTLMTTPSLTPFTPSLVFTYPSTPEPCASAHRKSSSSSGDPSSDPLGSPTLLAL
UniProt Q8N4A0: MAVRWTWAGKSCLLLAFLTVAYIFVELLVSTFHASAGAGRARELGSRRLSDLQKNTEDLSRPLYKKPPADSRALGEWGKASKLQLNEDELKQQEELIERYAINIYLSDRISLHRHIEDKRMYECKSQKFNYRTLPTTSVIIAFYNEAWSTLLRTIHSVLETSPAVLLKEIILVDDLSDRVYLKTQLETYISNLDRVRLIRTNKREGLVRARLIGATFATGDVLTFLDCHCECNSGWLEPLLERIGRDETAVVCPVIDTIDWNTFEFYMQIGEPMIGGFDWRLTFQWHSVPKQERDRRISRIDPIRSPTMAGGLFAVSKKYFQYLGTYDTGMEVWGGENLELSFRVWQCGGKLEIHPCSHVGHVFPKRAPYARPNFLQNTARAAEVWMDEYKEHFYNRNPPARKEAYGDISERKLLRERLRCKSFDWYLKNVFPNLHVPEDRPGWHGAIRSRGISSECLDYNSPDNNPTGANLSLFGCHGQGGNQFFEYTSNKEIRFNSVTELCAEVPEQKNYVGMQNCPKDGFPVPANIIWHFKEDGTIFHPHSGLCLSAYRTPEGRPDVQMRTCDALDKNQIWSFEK
UniProt Q9BTY2: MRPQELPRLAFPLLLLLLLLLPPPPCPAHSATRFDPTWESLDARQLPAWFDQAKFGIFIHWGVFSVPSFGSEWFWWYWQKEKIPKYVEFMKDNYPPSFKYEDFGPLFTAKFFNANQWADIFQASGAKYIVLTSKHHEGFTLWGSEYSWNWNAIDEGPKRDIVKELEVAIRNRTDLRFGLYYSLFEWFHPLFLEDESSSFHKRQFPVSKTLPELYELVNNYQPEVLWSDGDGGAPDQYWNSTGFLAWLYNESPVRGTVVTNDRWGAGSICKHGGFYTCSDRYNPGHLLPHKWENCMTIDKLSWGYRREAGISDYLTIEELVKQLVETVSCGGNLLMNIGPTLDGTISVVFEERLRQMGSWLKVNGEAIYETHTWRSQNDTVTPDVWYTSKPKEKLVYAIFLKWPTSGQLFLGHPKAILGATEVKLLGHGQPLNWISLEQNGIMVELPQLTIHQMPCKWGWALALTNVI
UniProt Q92947: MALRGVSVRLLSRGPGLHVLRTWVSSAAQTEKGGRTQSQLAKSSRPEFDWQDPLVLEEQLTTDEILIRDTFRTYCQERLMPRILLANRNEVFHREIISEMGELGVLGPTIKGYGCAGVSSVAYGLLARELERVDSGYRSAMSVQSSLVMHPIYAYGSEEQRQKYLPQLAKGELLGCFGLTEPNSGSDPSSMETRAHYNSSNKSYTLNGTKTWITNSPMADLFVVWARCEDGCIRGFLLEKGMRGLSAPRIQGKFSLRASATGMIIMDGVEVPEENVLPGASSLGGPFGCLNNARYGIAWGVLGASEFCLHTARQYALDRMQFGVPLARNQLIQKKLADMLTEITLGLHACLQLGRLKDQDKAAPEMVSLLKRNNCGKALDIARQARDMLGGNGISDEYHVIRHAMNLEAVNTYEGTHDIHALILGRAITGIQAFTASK
UniProt P60520, whole entry, looked up: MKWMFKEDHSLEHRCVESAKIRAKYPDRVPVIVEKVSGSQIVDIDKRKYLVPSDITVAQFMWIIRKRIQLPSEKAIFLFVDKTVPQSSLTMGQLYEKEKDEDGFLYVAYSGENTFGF
UniProt P0CL80: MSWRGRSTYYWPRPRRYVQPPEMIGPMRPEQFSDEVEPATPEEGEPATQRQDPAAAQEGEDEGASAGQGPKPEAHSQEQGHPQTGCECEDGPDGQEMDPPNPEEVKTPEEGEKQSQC
UniProt Q8N2G8: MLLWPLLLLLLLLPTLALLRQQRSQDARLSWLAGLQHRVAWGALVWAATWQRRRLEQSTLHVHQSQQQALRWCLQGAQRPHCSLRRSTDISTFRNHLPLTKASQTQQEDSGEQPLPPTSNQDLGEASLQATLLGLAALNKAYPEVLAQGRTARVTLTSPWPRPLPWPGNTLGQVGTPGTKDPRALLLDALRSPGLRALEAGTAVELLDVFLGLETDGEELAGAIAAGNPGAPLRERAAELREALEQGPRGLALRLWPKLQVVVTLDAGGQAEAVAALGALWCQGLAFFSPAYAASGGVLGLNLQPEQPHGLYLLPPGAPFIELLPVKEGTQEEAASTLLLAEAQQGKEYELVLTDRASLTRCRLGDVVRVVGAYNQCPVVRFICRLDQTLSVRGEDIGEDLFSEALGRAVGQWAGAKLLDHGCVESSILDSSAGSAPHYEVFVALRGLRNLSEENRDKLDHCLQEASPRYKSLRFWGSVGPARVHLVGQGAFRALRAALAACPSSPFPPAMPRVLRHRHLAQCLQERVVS
UniProt Q8NCW6: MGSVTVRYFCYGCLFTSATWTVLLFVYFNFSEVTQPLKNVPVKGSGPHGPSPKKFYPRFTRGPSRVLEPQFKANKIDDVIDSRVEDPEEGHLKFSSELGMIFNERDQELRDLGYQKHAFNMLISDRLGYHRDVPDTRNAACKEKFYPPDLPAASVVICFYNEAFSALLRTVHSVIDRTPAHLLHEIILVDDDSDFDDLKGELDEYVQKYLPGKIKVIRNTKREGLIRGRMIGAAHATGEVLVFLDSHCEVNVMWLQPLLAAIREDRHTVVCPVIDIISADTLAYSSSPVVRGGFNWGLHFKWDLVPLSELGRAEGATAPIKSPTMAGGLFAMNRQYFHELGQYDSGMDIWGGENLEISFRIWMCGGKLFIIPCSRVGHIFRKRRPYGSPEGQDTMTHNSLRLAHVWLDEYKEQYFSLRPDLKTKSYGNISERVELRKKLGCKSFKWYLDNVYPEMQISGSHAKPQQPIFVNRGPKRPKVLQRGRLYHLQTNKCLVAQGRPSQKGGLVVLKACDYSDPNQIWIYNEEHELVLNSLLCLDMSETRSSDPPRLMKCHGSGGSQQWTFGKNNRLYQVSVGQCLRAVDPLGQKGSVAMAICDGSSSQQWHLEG
UniProt P31150: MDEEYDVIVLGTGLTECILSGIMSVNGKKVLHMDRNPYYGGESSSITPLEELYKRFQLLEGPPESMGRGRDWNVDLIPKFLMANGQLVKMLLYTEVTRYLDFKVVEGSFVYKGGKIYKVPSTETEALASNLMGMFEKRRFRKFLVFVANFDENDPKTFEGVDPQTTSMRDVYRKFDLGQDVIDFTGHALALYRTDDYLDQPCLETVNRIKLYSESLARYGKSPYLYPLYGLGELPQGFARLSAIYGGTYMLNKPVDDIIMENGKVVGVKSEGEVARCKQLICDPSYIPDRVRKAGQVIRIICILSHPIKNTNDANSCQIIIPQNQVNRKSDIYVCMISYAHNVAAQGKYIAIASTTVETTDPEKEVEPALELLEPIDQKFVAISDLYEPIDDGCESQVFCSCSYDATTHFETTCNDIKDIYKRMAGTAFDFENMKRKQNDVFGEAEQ
UniProt P23434: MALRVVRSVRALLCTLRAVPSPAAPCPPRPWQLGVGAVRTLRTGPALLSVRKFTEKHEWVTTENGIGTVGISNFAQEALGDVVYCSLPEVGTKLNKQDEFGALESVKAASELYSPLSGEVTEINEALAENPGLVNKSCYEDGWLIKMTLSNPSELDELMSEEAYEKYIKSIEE
UniProt Q8NB37: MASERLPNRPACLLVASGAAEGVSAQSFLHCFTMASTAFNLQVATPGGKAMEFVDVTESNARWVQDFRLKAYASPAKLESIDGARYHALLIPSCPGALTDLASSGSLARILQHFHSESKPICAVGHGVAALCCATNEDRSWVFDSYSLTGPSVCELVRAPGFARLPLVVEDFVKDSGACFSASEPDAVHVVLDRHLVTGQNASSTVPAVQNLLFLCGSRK
UniProt Q8N9F7: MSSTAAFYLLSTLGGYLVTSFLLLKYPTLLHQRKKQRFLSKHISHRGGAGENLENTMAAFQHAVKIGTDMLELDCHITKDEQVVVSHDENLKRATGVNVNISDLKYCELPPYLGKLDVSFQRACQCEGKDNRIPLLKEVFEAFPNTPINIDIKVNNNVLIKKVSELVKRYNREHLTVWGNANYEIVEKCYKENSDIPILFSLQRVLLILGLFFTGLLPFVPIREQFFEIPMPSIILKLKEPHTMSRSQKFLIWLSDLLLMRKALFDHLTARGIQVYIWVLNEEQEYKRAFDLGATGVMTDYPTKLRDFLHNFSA
UniProt P48507: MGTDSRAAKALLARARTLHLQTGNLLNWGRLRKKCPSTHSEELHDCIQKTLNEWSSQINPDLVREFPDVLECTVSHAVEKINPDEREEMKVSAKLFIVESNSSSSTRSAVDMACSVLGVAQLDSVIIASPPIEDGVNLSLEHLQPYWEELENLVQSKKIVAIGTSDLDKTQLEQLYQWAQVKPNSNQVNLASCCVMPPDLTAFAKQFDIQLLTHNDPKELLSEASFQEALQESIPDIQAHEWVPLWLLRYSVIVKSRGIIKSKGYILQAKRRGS
UniProt Q96I24: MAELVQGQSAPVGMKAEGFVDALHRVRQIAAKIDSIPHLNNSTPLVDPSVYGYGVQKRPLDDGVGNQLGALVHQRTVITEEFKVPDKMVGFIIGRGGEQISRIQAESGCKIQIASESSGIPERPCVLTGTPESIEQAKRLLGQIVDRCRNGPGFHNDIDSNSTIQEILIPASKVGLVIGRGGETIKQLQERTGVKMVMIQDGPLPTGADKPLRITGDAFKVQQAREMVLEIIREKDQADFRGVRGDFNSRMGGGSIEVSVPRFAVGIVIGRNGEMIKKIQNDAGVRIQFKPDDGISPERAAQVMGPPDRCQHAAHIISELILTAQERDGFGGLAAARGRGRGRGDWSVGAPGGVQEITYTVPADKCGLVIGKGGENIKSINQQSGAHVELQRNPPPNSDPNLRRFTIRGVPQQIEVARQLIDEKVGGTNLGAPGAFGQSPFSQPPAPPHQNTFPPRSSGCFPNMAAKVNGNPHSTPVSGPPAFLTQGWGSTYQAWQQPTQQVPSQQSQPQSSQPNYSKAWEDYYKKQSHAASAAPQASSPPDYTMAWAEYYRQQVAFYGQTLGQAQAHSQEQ
UniProt P04066: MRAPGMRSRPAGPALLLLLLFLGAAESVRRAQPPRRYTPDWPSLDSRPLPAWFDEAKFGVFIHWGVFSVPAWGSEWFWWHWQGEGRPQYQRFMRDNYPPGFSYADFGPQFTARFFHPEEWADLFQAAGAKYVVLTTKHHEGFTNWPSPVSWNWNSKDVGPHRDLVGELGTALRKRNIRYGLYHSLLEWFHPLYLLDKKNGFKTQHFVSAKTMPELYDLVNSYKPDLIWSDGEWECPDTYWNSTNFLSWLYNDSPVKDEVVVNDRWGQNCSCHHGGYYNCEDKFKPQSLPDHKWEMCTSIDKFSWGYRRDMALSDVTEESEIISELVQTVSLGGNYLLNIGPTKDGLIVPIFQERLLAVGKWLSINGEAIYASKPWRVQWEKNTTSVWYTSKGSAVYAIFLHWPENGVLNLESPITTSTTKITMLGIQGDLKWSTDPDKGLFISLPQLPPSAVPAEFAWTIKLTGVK

crizotinib = compound: C[C@@H](Oc1cc(-c2cnn(C3CCNCC3)c2)cnc1N)c1c(Cl)ccc(F)c1Cl [crizotinib]
Procedure, shortened: as §1

[2] = compound: C[C@@H]1COCCN1C2=NC(=NC(=C2)C3(CC3)S(=O)(=O)C)C4=C5C=CNC5=CC=C4
Procedure, shortened: as §1

[3] = compound: C[C@H](C1=CC=C(C=C1)C(=O)NC2=C3C=CNC3=NC=C2)N
Procedure, shortened: as §1

duvelisib = compound: C[C@H](Nc1ncnc2nc[nH]c12)c1cc2cccc(Cl)c2c(=O)n1-c1ccccc1 [duvelisib]
Procedure, shortened: as §1

gandotinib = compound: Cc1cc(Nc2cc(CN3CCOCC3)c3nc(C)c(Cc4ccc(Cl)cc4F)n3n2)n[nH]1 [gandotinib]
Procedure, shortened: as §1

tozasertib = compound: Cc1cc(Nc2cc(N3CCN(C)CC3)nc(Sc3ccc(NC(=O)C4CC4)cc3)n2)n[nH]1 [tozasertib]
Procedure, shortened: as §1

[4] = compound: Cc1cc(SCc2sc(-c3ccc(C(F)(F)F)cc3)nc2C)ccc1OCC(=O)O
Procedure, shortened: as §1

doramapimod = compound: Cc1ccc(-n2nc(C(C)(C)C)cc2NC(=O)Nc2ccc(OCCN3CCOCC3)c3ccccc23)cc1 [doramapimod]
Procedure, shortened: as §1

ispinesib = compound: Cc1ccc(C(=O)N(CCCN)[C@@H](c2nc3cc(Cl)ccc3c(=O)n2Cc2ccccc2)C(C)C)cc1 [ispinesib]
Procedure, shortened: as §1

bafetinib = compound: Cc1ccc(NC(=O)c2ccc(CN3CC[C@H](N(C)C)C3)c(C(F)(F)F)c2)cc1Nc1nccc(-c2cncnc2)n1 [bafetinib]
Procedure, shortened: as §1

[5] = compound: Cc1cccc(CC(=O)N2CCc3c2ccc(-c2cn(C)c4ncnc(N)c24)c3F)n1
Procedure, shortened: as §1

nilotinib = compound: Cc1cn(-c2cc(NC(=O)c3ccc(C)c(Nc4nccc(-c5cccnc5)n4)c3)cc(C(F)(F)F)c2)cn1 [nilotinib]
Procedure, shortened: as §1

[6] = compound: Cc1nc(Nc2n[nH]c3c2CN(C(=O)N[C@H](CN(C)C)c2ccccc2)C3(C)C)c2sccc2n1
Procedure, shortened: as §1

dasatinib = compound: Cc1nc(Nc2ncc(C(=O)Nc3c(C)cccc3Cl)s2)cc(N2CCN(CCO)CC2)n1 [dasatinib]
Procedure, shortened: as §1

[7] = compound: Cc1ncc(-c2ccnc(Nc3ccc(S(C)(=O)=O)cc3)n2)n1C(C)C
Procedure, shortened: as §1

[8] = compound: Cn1cc(-c2ccc3c(c2)CCN3C(=O)Cc2cccc(C(F)(F)F)c2)c2c(N)ncnc21
Procedure, shortened: as §1

[9] = compound: Cn1cc(-c2ccc3nnc(C(F)(F)c4ccc5ncccc5c4)n3n2)cn1
Procedure, shortened: as §1

tipifarnib = compound: Cn1cncc1[C@@](N)(c1ccc(Cl)cc1)c1ccc2c(c1)c(-c1cccc(Cl)c1)cc(=O)n2C [tipifarnib]
Procedure, shortened: as §1

mubritinib = compound: FC(F)(F)c1ccc(/C=C/c2nc(COc3ccc(CCCCn4ccnn4)cc3)co2)cc1 [mubritinib]
Procedure, shortened: as §1

Measured: log2 fold change

GAPDH (UniProt P04406)
inactive: [1] -0.013 | crizotinib 0.046 | [2] 0.027 | [3] -0.156 | duvelisib -0.003 | gandotinib 0.053 | tozasertib 0.016 | [4] -0.012 | doramapimod -0.084 | ispinesib 0.12 | bafetinib 0.012 | [5] 0.028 | nilotinib 0.069 | [6] -0.01 | dasatinib -0.002 | [7] 0.006 | [8] 0.068 | [9] 0.011 | tipifarnib -0.031 | mubritinib 0.02

GALNS (UniProt P34059)
inactive: [1] 0.006 | crizotinib 0.062 | [2] 0.119 | [3] -0.057 | duvelisib 0.087 | gandotinib 0.053 | tozasertib -0.031 | [4] 0.014 | doramapimod 0.025 | ispinesib 0.088 | bafetinib 0.024 | [5] -0.006 | nilotinib 0.006 | [6] -0.012 | dasatinib 0.061 | [7] 0.108 | [8] 0.001 | [9] -0.074 | tipifarnib -0.124 | mubritinib 0.013

FOSL1 (UniProt P15407)
inactive: [1] -0.005 | crizotinib -0.087 | [2] -0.077 | [3] 0.148 | duvelisib -0.11 | gandotinib 0.221 | [4] 0.056 | doramapimod 0.106 | bafetinib -0.105 | [5] -0.299 | nilotinib 0.004 | [6] 0.019 | dasatinib 0.036 | [7] 0.038 | [8] -0.044 | tipifarnib 0.168 | mubritinib -0.083

GALNT4 (UniProt Q8N4A0)
inactive: [1] 0.047 | crizotinib -0.068 | [2] 0.156 | [3] 0.017 | gandotinib -0.153 | [4] 0.036 | doramapimod 0.013 | ispinesib 0.04 | bafetinib -0.042 | [5] -0.042 | nilotinib -0.049 | [6] 0.006 | dasatinib -0.021 | [7] 0.042 | [8] 0.079 | [9] -0.005 | tipifarnib 0.038 | mubritinib 0.035

FUCA2 (UniProt Q9BTY2)
inactive: [1] 0.021 | crizotinib -0.002 | [2] 0.017 | [3] -0.05 | gandotinib 0.041 | [4] 0.014 | doramapimod 0.058 | ispinesib -0.001 | [5] -0.022 | nilotinib 0.032 | [6] 0.001 | dasatinib 0.022 | [7] -0.009 | [8] 0.012 | [9] -0.019 | tipifarnib 0.077 | mubritinib 0.013
active: bafetinib -0.809

GCDH (UniProt Q92947)
inactive: [1] 0.004 | crizotinib 0.058 | [2] 0.112 | [3] -0.032 | gandotinib 0.076 | [4] -0.021 | doramapimod -0.012 | ispinesib 0.041 | bafetinib -0.047 | [5] 0.007 | nilotinib 0.002 | [6] 0.017 | dasatinib -0.059 | [7] -0.001 | [8] 0.08 | [9] -0.129 | tipifarnib -0.007 | mubritinib -0.028

GABARAPL2 (UniProt P60520)
inactive: [1] 0.081 | crizotinib -0.178 | [2] 0.036 | [3] 0.006 | gandotinib 0.039 | [4] 0.005 | doramapimod -0.073 | ispinesib -0.151 | bafetinib -0.168 | [5] 0.096 | nilotinib -0.015 | [6] -0.028 | dasatinib -0.014 | [7] -0.004 | [8] 0.046 | [9] 0.279 | tipifarnib -0.003 | mubritinib 0.03

GAGE12F (UniProt P0CL80)
active: [5] -0.284
inactive: [1] 0.019 | crizotinib 0.034 | [2] 0.092 | [3] 0.081 | gandotinib 0.072 | [4] 0.03 | doramapimod 0.043 | ispinesib 0.009 | bafetinib -0.092 | nilotinib 0.052 | [6] -0.085 | dasatinib 0.009 | [7] -0.015 | [8] -0.004 | [9] -0.035 | tipifarnib 0.053 | mubritinib 0.085

GHDC (UniProt Q8N2G8)
inactive: [1] 0.041 | crizotinib -0.02 | [2] 0.021 | [3] -0.074 | gandotinib 0.002 | [4] -0.039 | doramapimod -0.041 | ispinesib -0.132 | bafetinib -0.165 | [5] 0.018 | nilotinib 0.036 | [6] -0.001 | dasatinib 0.027 | [7] -0.011 | [8] 0.045 | [9] 0.012 | tipifarnib 0.146 | mubritinib 0.01

Random excerpt: 2 entries already listed, in no set order.
GCDH (UniProt Q92947)
inactive: [1] 0.004 | crizotinib 0.058 | [2] 0.112 | [3] -0.032 | gandotinib 0.076 | [4] -0.021 | doramapimod -0.012 | ispinesib 0.041 | bafetinib -0.047 | [5] 0.007 | nilotinib 0.002 | [6] 0.017 | dasatinib -0.059 | [7] -0.001 | [8] 0.08 | [9] -0.129 | tipifarnib -0.007 | mubritinib -0.028

FUCA2 (UniProt Q9BTY2)
inactive: [1] 0.021 | crizotinib -0.002 | [2] 0.017 | [3] -0.05 | gandotinib 0.041 | [4] 0.014 | doramapimod 0.058 | ispinesib -0.001 | [5] -0.022 | nilotinib 0.032 | [6] 0.001 | dasatinib 0.022 | [7] -0.009 | [8] 0.012 | [9] -0.019 | tipifarnib 0.077 | mubritinib 0.013
active: bafetinib -0.809

The list continues.

GALNT11 (UniProt Q8NCW6)
inactive: [1] 0.039 | crizotinib 0.04 | [2] 0.112 | [3] 0.018 | gandotinib 0.045 | [4] -0.061 | doramapimod 0.045 | ispinesib -0.163 | bafetinib -0.055 | [5] -0.089 | nilotinib -0.047 | [6] -0.068 | dasatinib -0.022 | [7] 0.076 | [8] 0.069 | [9] -0.031 | tipifarnib 0.102 | mubritinib 0.088

GDI1 (UniProt P31150)
inactive: [1] 0.018 | crizotinib 0.026 | [2] 0.061 | [3] -0.054 | gandotinib -0.049 | [4] -0.009 | doramapimod -0.027 | ispinesib 0.084 | bafetinib 0.002 | [5] 0.024 | nilotinib 0.001 | [6] 0.017 | dasatinib -0.053 | [7] -0.024 | [8] 0.035 | [9] 0.01 | tipifarnib -0.06 | mubritinib 0.062

GCSH (UniProt P23434)
inactive: [1] -0.009 | crizotinib 0.073 | [2] 0.005 | [3] -0.022 | gandotinib 0.043 | [4] 0.026 | doramapimod 0.032 | ispinesib -0.057 | bafetinib -0.13 | [5] 0.095 | nilotinib -0.022 | [6] 0.01 | dasatinib 0.015 | [7] -0.026 | [8] 0.016 | [9] 0.016 | tipifarnib -0.017 | mubritinib -0.05

GATD1 (UniProt Q8NB37)
inactive: [1] -0.026 | crizotinib 0.023 | [2] -0.256 | [3] 0.012 | gandotinib 0.052 | [4] 0.033 | doramapimod 0.163 | ispinesib -0.005 | bafetinib 0.008 | [5] -0.021 | nilotinib 0.059 | [6] -0.016 | dasatinib -0.011 | [7] 0.119 | [8] 0.046 | [9] 0.015 | tipifarnib 0.029 | mubritinib 0.035

GDPD1 (UniProt Q8N9F7)
inactive: [1] 0.086 | crizotinib 0.035 | [2] 0.074 | [3] -0.057 | gandotinib 0.012 | [4] -0.033 | doramapimod 0.078 | bafetinib 0.088 | [5] -0.141 | nilotinib 0.1 | [6] 0.104 | dasatinib 0.023 | [7] -0.045 | [8] 0.046 | [9] -0.031 | tipifarnib 0.106 | mubritinib 0.096
active: ispinesib 0.353

GCLM (UniProt P48507)
inactive: [1] 0.058 | crizotinib -0.003 | [2] 0.042 | [3] -0.019 | gandotinib -0.15 | [4] 0.06 | doramapimod -0.072 | ispinesib 0.076 | bafetinib 0.016 | [5] 0.072 | nilotinib -0.101 | [6] -0.015 | dasatinib -0.095 | [7] 0.019 | [8] 0.042 | [9] -0.051 | tipifarnib -0.133 | mubritinib 0.023

FUBP3 (UniProt Q96I24)
inactive: [1] -0.076 | crizotinib -0.046 | [2] -0.083 | [3] 0.065 | gandotinib -0.106 | [4] 0.013 | doramapimod -0.025 | ispinesib -0.049 | bafetinib -0.035 | [5] 0.009 | nilotinib -0.051 | [6] 0.035 | dasatinib -0.024 | [7] 0.167 | [8] -0.059 | [9] -0.045 | tipifarnib 0.014 | mubritinib -0.052

FUCA1 (UniProt P04066)
active: bafetinib -1.16
inactive: [1] 0.019 | crizotinib -0.079 | [2] 0.031 | [3] -0.049 | gandotinib 0 | [4] -0.044 | doramapimod 0.021 | ispinesib -0.007 | [5] -0.001 | nilotinib -0.011 | [6] -0.01 | dasatinib -0.009 | [7] -0.014 | [8] -0.054 | [9] 0.011 | tipifarnib -0.001 | mubritinib -0.008

From the supplement of paper PMC10849652
